According to publication PMC9684564:
These are yes or no findings as the source states them, for the method shown. In cells and extracts the contact can be indirect. Here binding means that the protein was enriched with, or labelled near, the bait; the list need not be complete.

Sequences of proteins named here, by UniProt entry; tags and fusion partners are left off.
UniProt Q14974: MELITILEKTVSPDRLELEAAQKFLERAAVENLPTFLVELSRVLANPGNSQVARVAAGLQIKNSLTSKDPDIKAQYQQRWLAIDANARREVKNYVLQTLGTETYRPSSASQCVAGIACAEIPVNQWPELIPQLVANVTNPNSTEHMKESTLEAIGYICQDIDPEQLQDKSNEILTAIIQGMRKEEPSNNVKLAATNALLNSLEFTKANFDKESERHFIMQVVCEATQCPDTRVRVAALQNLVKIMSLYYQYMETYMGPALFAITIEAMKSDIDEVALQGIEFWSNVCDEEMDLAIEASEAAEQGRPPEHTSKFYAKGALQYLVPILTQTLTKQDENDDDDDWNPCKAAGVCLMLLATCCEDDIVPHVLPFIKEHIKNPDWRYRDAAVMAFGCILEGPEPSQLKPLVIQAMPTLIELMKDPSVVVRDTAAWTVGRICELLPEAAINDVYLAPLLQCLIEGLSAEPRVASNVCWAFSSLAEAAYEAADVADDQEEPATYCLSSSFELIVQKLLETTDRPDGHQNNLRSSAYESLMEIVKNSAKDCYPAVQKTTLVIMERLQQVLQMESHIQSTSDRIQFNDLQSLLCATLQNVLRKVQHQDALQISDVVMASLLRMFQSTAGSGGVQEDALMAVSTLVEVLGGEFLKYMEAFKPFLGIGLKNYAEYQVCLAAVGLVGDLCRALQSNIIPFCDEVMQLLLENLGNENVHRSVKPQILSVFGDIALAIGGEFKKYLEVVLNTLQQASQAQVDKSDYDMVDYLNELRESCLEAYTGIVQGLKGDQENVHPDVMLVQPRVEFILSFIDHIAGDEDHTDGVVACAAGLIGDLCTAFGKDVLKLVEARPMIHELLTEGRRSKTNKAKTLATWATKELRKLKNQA

B1: Pre-mRNA 3-end-processing factor FIP1 (protein, UniProt Q6UN15 1-594)
chain: MSAGEVERLVSELSGGTGGDEEEEWLYGGPWDVHVHSDLAKDLDENEVERPEEENASANPPSGIEDETAENGVPKPKVTETEDDSDSDSDDDEDDVHVTIGDIKTGAPQYGSYGTAPVNLNIKTGGRVYGTTGTKVKGVDLDAPGSINGVPLLEVDLDSFEDKPWRKPGADLSDYFNYGFNEDTWKAYCEKQKRIRMGLEVIPVTSTTNKITAEDCTMEVTPGAEIQDGRFNLFKVQQGRTGNSEKETALPSTKAEFTSPPSLFKTGLPPSRNSTSSQSQTSTASRKANSSVGKWQDRYGRAESPDLRRLPGAIDVIGQTITISRVEGRRRANENSNIQVLSERSATEVDNNFSKPPPFFPPGAPPTHLPPPPFLPPPPTVSTAPPLIPPPGFPPPPGAPPPSLIPTIESGHSSGYDSRSARAFPYGNVAFPHLPGSAPSWPSLVDTSKQWDYYARREKDRDRERDRDRERDRDRDRERERTRERERERDHSPTPSVFNSDEERYRYREYAERGYERHRASREKEERHRERRHREKEETRHKSSRSNSRRRHESEEGDSHRRHKHKKSKRSKEGKEAGSEPAPEQESTEATPAE
B2: Cleavage and polyadenylation specificity factor subunit 7 (protein, UniProt Q8N684 1-471)
chain: MSEGVDLIDIYADEEFNQDPEFNNTDQIDLYDDVLTATSQPSDDRSSSTEPPPPVRQEPSPKPNNKTPAILYTYSGLRNRRAAVYVGSFSWWTTDQQLIQVIRSIGVYDVVELKFAENRANGQSKGYAEVVVASENSVHKLLELLPGKVLNGEKVDVRPATRQNLSQFEAQARKRECVRVPRGGIPPRAHSRDSSDSADGRATPSENLVPSSARVDKPPSVLPYFNRPPSALPLMGLPPPPIPPPPPLSSSFGVPPPPPGIHYQHLMPPPPRLPPHLAVPPPGAIPPALHLNPAFFPPPNATVGPPPDTYMKASAPYNHHGSRDSGPPPSTVSEAEFEDIMKRNRAISSSAISKAVSGASAGDYSDAIETLLTAIAVIKQSRVANDERCRVLISSLKDCLHGIEAKSYSVGASGSSSRKRHRSRERSPSRSRESSRRHRDLLHNEDRHDDYFQERNREHERHRDRERDRHH
B3: Serine/arginine-rich splicing factor 3 (protein, UniProt P84103 1-164)
chain: MHRDSCPLDCKVYVGNLGNNGNKTELERAFGYYGPLRSVWVARNPPGFAFVEFEDPRDAADAVRELDGRTLCGCRVRVELSNGEKRSRNRGPPPSWGRRPRDDYRRRSPPPRRRSPRRRSFSRSRSRSLSRDRRRERSLSRERNHKPSRSFSRSRSRSRSNERK
B4: Cell division cycle and apoptosis regulator protein 1 (protein, UniProt Q8IX12 1-1150)
chain: MAQFGGQKNPPWATQFTATAVSQPAALGVQQPSLLGASPTIYTQQTALAAAGLTTQTPANYQLTQTAALQQQAAAAAAALQQQYSQPQQALYSVQQQLQQPQQTLLTQPAVALPTSLSLSTPQPTAQITVSYPTPRSSQQQTQPQKQRVFTGVVTKLHDTFGFVDEDVFFQLSAVKGKTPQVGDRVLVEATYNPNMPFKWNAQRIQTLPNQNQSQTQPLLKTPPAVLQPIAPQTTFGVQTQPQPQSLLQAQISAASITPLLQTQPQPLLQQPQQKAGLLQPPVRIVSQPQPARRLDPPSRFSGRNDRGDQVPNRKDDRSRERERERRRSRERSPQRKRSRERSPRRERERSPRRVRRVVPRYTVQFSKFSLDCPSCDMMELRRRYQNLYIPSDFFDAQFTWVDAFPLSRPFQLGNYCNFYVMHREVESLEKNMAILDPPDADHLYSAKVMLMASPSMEDLYHKSCALAEDPQELRDGFQHPARLVKFLVGMKGKDEAMAIGGHWSPSLDGPDPEKDPSVLIKTAIRCCKALTGIDLSVCTQWYRFAEIRYHRPEETHKGRTVPAHVETVVLFFPDVWHCLPTRSEWETLSRGYKQQLVEKLQGERKEADGEQDEEEKDDGEAKEISTPTHWSKLDPKTMKVNDLRKELESRALSSKGLKSQLIARLTKQLKVEEQKEEQKELEKSEKEEDEDDDRKSEDDKEEEERKRQEEIERQRRERRYILPDEPAIIVHPNWAAKSGKFDCSIMSLSVLLDYRLEDNKEHSFEVSLFAELFNEMLQRDFGVRIYKSLLSLPEKEDKKEKDKKSKKDERKDKKEERDDETDEPKPKRRKSGDDKDKKEDRDERKKEDKRKDDSKDDDETEEDNNQDEYDPMEAEEAEDEEDDRDEEEMTKRDDKRDINRYCKERPSKDKEKEKTQMITINRDLLMAFVYFDQSHCGYLLEKDLEEILYTLGLHLSRAQVKKLLNKVVLRESCFYRKLTDTSKDEENHEESESLQEDMLGNRLLLPTPTVKQESKDVEENVGLIVYNGAMVDVGSLLQKLEKSEKVRAEVEQKLQLLEEKTDEDEKTILNLENSNKSLSGELREVKKDLSQLQENLKISENMNLQFENQMNKTIRNLSTVMDEIHTVLKKDNVKNEDKDQKSKENGASV

biological target: Karyopherin beta 1 (human (endogenous in hTERT-RPE1, HeLa, WHCO5, KYSE30)) (UniProt Q14974); assay: affinity purification with mass spectrometry; endogenous Kpnβ1 precipitated with 50 µg anti-Karyopherin β1 (H-7) agarose-conjugated antibody from 500 µg lysate of hTERT-RPE1, HeLa, WHCO5 or KYSE30 cells; non-denaturing lysis buffer (1% Triton X-100, 120 mM NaCl, 1 mM CaCl2, 25 mM Tris, pH 7.4); 4 °C overnight; no cross-linking; hits present in all three replicates and absent from the IgG isotype controls

binding, binds:
B1
B2
B3
B4
